Source: PubChem BioAssay AID2551 (National Center for Advancing Translational Sciences (NCATS), 2010)
Values joined by “and” are separate entries in the source; they are usually repeats but may differ in a detail not shown here. Equal entries are not always repeated. The whole screen tested about 310,000 compounds, of which about 17,000 (5.5%) were called active. The shares of active, inactive and inconclusive entries below differ from those in the screen. The call rests on the fitted dose curve; in most records, active means well fitted inhibition curve with a large enough effect; inconclusive means small, poorly fitted or top-dose-only effect, or effect the other way; inactive means no such curve, though single readings can be large or run the other way. A potency beside an inconclusive call is a rough fit, not a confirmed value. Some compounds were tested as several samples or in several runs, with calls that do not always agree.
Further: nearly all actives have a fitted effect of over 60% in size.
On the % scale 0 is the no-effect control and ±100 the full control effect; potency means the concentration at half of the fitted maximal effect.

Sequences of proteins named here, by UniProt entry; tags and fusion partners are left off. A change or cut given only in a name is not applied to a line headed by its entry.
UniProt P51450: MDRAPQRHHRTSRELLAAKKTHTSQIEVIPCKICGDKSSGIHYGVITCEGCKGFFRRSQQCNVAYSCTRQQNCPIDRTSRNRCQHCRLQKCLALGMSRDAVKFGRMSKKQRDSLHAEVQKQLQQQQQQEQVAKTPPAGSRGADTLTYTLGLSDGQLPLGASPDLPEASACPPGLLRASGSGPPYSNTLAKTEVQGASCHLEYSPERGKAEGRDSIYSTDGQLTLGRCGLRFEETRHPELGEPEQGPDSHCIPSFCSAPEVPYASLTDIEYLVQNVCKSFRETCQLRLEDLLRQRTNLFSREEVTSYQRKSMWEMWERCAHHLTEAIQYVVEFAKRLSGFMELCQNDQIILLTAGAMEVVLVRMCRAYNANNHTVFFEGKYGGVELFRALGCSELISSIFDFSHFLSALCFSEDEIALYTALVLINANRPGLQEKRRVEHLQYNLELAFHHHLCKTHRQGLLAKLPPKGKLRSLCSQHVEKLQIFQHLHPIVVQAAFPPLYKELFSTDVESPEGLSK

These compounds were tested against Nuclear receptor ROR-gamma (Mus musculus) (UniProt P51450) (assay: qHTS for inhibitors of ROR gamma transcriptional activity). Settings: Drosophila S2 Gal4-RORgamma UAS-luciferase reporter, 20 h; activity change, negative = inhibition: at 53.6 µM (top of the series).
Summary of the method: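 Luminescence from a UAS-regulated Photinus luciferase reporter in stably transfected Drosophila Schneider cells is measured; decreased signal marks ROR gamma inhibition. Fusion expression is induced by 700 uM copper sulfate for 20 hr.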
With `CCCc1cc2c(OC(=O)CC)c(-c3ccc(C(=O)OCC)o3)c(=O)oc2cc1OC` the Potency was inconclusive: 31.6 µM [activator, single point].
`Cc1cccc(NC(=S)N(CCN(C)C)C(C)c2ccco2)c1` (stereo unspecified) was tested, and the Potency was inconclusive: 11.2 µM [inhibitor, single point].
In the case of `Cc1cc(C)cc(NC(=S)N2CCC(c3nc4ccccc4s3)CC2)c1`, the Potency was active: 4.47 µM.
For `CCCCOc1ccc(C(=O)N/N=C/c2cn[nH]c2-c2ccc(OC)c(OC)c2)cc1`, the Potency was inconclusive: 14.1 µM [inhibitor, single point].
`CN(C)C(=O)c1cc(C(=O)c2ccc(F)cc2C(F)(F)F)c[nH]1` was tested, and the Potency was inconclusive: 11.2 µM [activator, single point].
`O=C(O)c1sc2cc(C(F)(F)F)cnc2c1-c1ccccc1` was tested, and the “activity change, negative = inhibition” value was inactive: -14%.
`O=C(CSC1CS(=O)(=O)c2cc([N+](=O)[O-])ccc21)NNC(=O)c1ccc(Cl)cc1` (stereo unspecified) was tested, and the Potency was inconclusive: 28.2 µM [inhibitor, single point].
In the case of `COc1ccc(CN(C)Cc2nc(Cc3ccccc3Cl)no2)cc1OC`, the “activity change, negative = inhibition” value was inactive: 36.7%.
`Cc1ccc(CN(C(=O)Cn2nnc3ccccc32)C(C(=O)NCc2ccco2)c2cccs2)cc1` (stereo unspecified) was tested, and the Potency was inconclusive: 35.5 µM [activator, single point].
For `Cc1ccc(CSc2ncnc3c2cnn3-c2ccc(C)cc2)cc1`, the Potency was inconclusive: 15.8 µM [inhibitor, single point].
In the case of `COc1cc([N+](=O)[O-])ccc1NC(=O)CC1SC(=Nc2ccc(F)cc2)N(CCC2=CCCCC2)C1=O` (stereo unspecified), the Potency was inconclusive: 12.6 µM [inhibitor, single point].
With `COC(=O)c1ccccc1OCCOCCOc1cccc2cccnc12` the Potency was inconclusive: 35.5 µM [inhibitor, single point].
In the case of `CCc1ccccc1NC1c2ccccc2C(=O)N1Cc1ccco1` (stereo unspecified), the Potency was inconclusive: 7.08 µM [activator, partial curve].
`COc1cccc(-c2cc(C(=O)N3CCc4ccccc4C3)no2)c1` was tested, and the Potency was inconclusive: 15.8 µM [activator, single point].
With `c1coc(Cn2c(SCc3nc4ccccc4[nH]3)nnc2-c2cnccn2)c1` the “activity change, negative = inhibition” value was inactive: -26.8%.
For `COc1cccc(CNC(=O)Cn2nc(C)c([N+](=O)[O-])c2C)c1`, the “activity change, negative = inhibition” value was inactive: -3.96%.
With `CCN(CC)c1ccc(NC(=O)Nc2ccccc2)cc1` the Potency was inconclusive: 15.8 µM [inhibitor, partial curve, poor fit].
`COC(=O)c1cc(-c2ccc3c(c2)OCO3)nc2ccccc12` was tested, and the “activity change, negative = inhibition” value was inactive: 18.9%.
In the case of `O=C(/C=C/c1cccnc1)/C=C/c1cccnc1`, the Potency was active: 5.01 µM.
For `COc1ccc(NC(=S)/N=C(\N)Nc2nc(C)c3ccc(C)cc3n2)cc1`, the Potency was active: 0.631 µM.
For `O=C(CCN1C(=O)/C(=C/c2ccc(F)cc2)SC1=S)N[C@@H](CO)Cc1ccccc1`, the “activity change, negative = inhibition” value was inactive: -15.4%.
With `COc1cccc(-c2nc(C(=O)NCC3CCCO3)cc3c2[nH]c2ccccc23)c1` (stereo unspecified) the Potency was inconclusive: 35.5 µM [activator, single point].
In the case of `Cc1ccc(-c2nnn(CCC(=O)Nc3ccc4c(c3)OCO4)n2)cc1`, the Potency was inconclusive: 11.2 µM [inhibitor, partial curve].
With `CCOC(=O)c1c(NC(=O)COC(=O)Cn2c(C)nc3ccccc32)sc2c1CCCC2` the “activity change, negative = inhibition” value was inactive: -4.47%.
In the case of `CCC(Sc1nc2ccccc2s1)C(=O)Nc1nnc(C)s1` (stereo unspecified), the Potency was inconclusive: 22.4 µM [inhibitor, single point].
With `Cc1ccccc1C(=O)NC(=S)Nc1sc2c(c1C#N)CCC(C)C2` (stereo unspecified) the Potency was active: 7.94 µM.
With `CCCCNC(=O)CSc1nc2n[nH]c(C)c2c(=N)n1-c1cccc(Cl)c1C` the Potency was inconclusive: 0.891 µM [activator, partial curve].
`Cc1c(NC(=S)N/N=C/C=C/c2ccccc2)c(=O)n(-c2ccccc2)n1C` was tested, and the Potency was active: 0.316 µM.
`O=C(OC(C(=O)NCc1ccc2c(c1)OCO2)c1ccccc1F)c1ccco1` (stereo unspecified) was tested, and the Potency was inconclusive: 35.5 µM [activator, single point].
With `Cc1cc(Cl)ccc1OCC(=O)Nc1ccccc1N1CCOCC1` the Potency was inconclusive: 22.4 µM [activator, single point].
`O=C1CC(Sc2nnnn2C2CCCCC2)C(=O)N1c1ccccc1` (stereo unspecified) was tested, and the Potency was inconclusive: 5.01 µM [inhibitor, full curve, poor fit].
`Nc1cccc2c1C(=O)N(C(=O)/C=C/c1cccc(Br)c1)C2=O` was tested, and the Potency was inconclusive: 35.5 µM [inhibitor, single point].
For `Cc1ccccc1CN1CCN(CC(=O)NC(C)c2ccccc2)CC1` (stereo unspecified), the “activity change, negative = inhibition” value was inactive: 3.29%.
With `O=C(C1CCCN(S(=O)(=O)c2ccccc2)C1)N1CCN(c2ncccn2)CC1` (stereo unspecified) the Potency was inconclusive: 3.55 µM [activator, single point].
`O=c1oc(-c2ccccc2F)nc2c1cnn2-c1ccccc1` was tested, and the Potency was inconclusive: 35.5 µM [inhibitor, single point].
`Cc1ccc(C(=O)N/N=c2\sc3ccccc3n2C)cc1` was tested, and the Potency was inconclusive: 15.8 µM [inhibitor, single point].
`C#CCOCCOCCOCCNc1nc(N2CCN(C(=O)Cn3cc(CCCN=C(N)N)nn3)CC2)nc(N2CCN(C(=O)[C@H]([C@@H](C)CC)n3cc(CCC(=O)O)nn3)CC2)n1` was tested, and the “activity change, negative = inhibition” value was inactive: 2.69%.
In the case of `O=C(NC(=S)NC(CO)c1ccccc1)c1ccc(F)cc1` (stereo unspecified), the Potency was inconclusive: 22.4 µM [inhibitor, single point].
In the case of `CN(C)CCN1CC(O)=C(c2nc3ccccc3s2)C1=N`, the “activity change, negative = inhibition” value was inactive: -15.9%.
For `Cc1nc2ccccc2nc(=O)c1NNc1ccccc1`, the “activity change, negative = inhibition” value was inactive: 31.5%.
In the case of `Oc1ccc2ccccc2c1N=Nc1ccccn1`, the Potency was active: 0.282 µM.
`CCCSc1nnc(CNC(=O)C23CC4CC(CC(C4)C2)C3)n1Cc1ccccc1` was tested, and the “activity change, negative = inhibition” value was inactive: -4.06%.
With `COc1ccccc1C(=O)n1nc(-c2ccco2)nc1N` the “activity change, negative = inhibition” value was inactive: 2.5%.
In the case of `O=C1NCN(c2ccccc2)C12CCN(CCCC(c1ccc(F)cc1)c1ccc(F)cc1)CC2`, the Potency was “inactive and active: 12.6 µM”.
`COc1ccc(OC(C)C(=O)Nc2ccc([N+](=O)[O-])cc2)cc1` (stereo unspecified) was tested, and the Potency was inconclusive: 11.2 µM [activator, single point].
`COc1ccc(Cn2c(O)c(C=Nc3ccccc3C(=O)O)c3ccccc3c2=O)cc1` was tested, and the Potency was inconclusive: 11.2 µM [activator, partial curve].
